Source: PubChem BioAssay AID504774 (Drosophila RNAi Screening Center, 2011)
Screen: 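Genes required for cells to withstand methyl methanesulphonate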 (primary screen). System: Drosophila Kc167 cells. Reagents: long dsRNA against Drosophila genes, about 0.25 µg dsRNA per well. Timing: about 6 days: 3 days knock-down, then 3 days with or without MMS. Treatment: methyl methanesulphonate 0.004% (w/v) for 3 days after knock-down. Measurement: 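Viability in wells given MMS, read as ATP luminescence, normalised by quantiles plate by plate and averaged across replicates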. Direction: mean viability with MMS: higher = more surviving cells after MMS.
The screen tested about 23,000 reagents; below is an unselected part of those that have a named target and a result. 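Values are quantile-normalised luminescence on an arbitrary scale; higher means more cells surviving MMS.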 Further read-outs or replicates are left out here. No sequences are given here.

For CG31275 [DRSC16919], how do the results read?
mean viability with MMS: 3.57e6

How did the screen score Rab9Fb [DRSC19854]?
mean viability with MMS: 3.87e6

With borr [DRSC02749], what does the deposit list?
mean viability with MMS: 3.01e6

How did the screen score Sumo [DRSC03611]?
mean viability with MMS: 2.80e6

With Polr3G [DRSC21511], what was measured?
mean viability with MMS: 3.51e6

What is on record for CG31388 [DRSC15254]?
mean viability with MMS: 3.55e6

What did the screen give for CG32425 [DRSC11739]?
mean viability with MMS: 2.85e6

What did the screen give for CG32425 [DRSC11764]?
mean viability with MMS: 3.63e6

What is on record for loopin-1 [DRSC06888]?
mean viability with MMS: 3.57e6

What did the screen give for CG42366 [DRSC02760]?
mean viability with MMS: 3.17e6

For CG42366 [DRSC23297], what does the deposit list?
mean viability with MMS: 3.69e6

How did the screen score Mur18B [DRSC20063]?
mean viability with MMS: 3.55e6

With Nup93-1 [DRSC19344], what was measured?
mean viability with MMS: 2.90e6

What did the screen give for CG13407 [DRSC14583]?
mean viability with MMS: 3.80e6

Look-ups from the entries so far:
Entry of Polr3G [DRSC21511] in “mean viability with MMS”: 3.51e6
Result for CG42366 [DRSC23297] in “mean viability with MMS”: 3.69e6
